This experiment has as its target 13Myc-tagged Esp1 (S. cerevisiae) (UniProt Q03018). The experiment in a line: affinity purification with mass spectrometry; one-step IP of Esp1-13Myc from lysate of logarithmically growing yeast with 9E10 anti-Myc antibody cross-linked to Sepharose, 4 h at 4°C, washes with 500mM NaCl; compared by spectral counting with a mock IP from an untagged strain.

Chains of the proteins cited; added tags and fusions are not shown.
UniProt Q03018: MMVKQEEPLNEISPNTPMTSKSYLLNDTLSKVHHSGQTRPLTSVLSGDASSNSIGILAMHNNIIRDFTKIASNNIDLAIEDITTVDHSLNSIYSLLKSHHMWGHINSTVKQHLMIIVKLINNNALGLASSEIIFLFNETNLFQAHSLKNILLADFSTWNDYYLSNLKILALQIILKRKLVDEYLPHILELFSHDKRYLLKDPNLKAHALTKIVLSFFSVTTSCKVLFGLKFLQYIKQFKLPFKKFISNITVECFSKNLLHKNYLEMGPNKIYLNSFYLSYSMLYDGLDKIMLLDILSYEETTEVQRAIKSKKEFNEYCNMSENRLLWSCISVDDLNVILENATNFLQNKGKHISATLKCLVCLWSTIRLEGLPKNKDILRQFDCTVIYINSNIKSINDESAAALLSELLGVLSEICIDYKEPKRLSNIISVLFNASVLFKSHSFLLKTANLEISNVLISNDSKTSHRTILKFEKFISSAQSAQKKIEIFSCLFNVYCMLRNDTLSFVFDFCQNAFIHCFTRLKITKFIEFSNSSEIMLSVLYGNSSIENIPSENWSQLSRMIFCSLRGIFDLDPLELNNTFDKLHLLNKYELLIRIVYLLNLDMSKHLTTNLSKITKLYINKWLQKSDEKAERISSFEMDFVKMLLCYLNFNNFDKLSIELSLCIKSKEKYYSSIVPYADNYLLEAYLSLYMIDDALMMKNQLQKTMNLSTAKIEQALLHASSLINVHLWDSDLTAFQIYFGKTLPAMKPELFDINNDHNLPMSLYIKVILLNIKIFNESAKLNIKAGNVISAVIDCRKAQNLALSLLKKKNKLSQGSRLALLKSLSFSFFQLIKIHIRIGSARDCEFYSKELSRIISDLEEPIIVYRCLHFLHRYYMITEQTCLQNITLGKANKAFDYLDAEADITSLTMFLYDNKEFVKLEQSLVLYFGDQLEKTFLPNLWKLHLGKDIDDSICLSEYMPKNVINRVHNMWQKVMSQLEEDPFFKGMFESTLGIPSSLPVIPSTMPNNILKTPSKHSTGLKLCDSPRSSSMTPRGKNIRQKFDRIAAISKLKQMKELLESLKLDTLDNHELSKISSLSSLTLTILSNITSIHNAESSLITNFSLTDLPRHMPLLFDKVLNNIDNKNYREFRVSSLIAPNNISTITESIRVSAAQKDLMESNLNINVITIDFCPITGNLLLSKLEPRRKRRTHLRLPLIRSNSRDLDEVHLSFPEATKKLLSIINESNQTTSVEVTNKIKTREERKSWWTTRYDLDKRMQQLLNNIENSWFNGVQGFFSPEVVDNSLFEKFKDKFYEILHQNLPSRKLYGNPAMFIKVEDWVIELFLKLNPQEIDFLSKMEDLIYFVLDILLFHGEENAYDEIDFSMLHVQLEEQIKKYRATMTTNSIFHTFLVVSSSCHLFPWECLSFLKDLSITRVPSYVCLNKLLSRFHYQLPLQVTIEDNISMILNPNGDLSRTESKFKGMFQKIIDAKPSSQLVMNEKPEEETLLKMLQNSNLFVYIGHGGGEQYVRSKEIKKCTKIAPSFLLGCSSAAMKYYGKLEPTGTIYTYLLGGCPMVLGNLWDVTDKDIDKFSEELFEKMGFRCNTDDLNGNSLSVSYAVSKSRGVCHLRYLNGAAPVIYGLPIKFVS

These are yes or no findings as the source states them, for the method shown. Binding seen in cells or lysates may run through a third protein. These calls come from enrichment with a bait or labelling near it, and not all partners need be listed.

Our source for the binding values is PMC4378997.

B1: Pds1/securin (endogenous) (protein, UniProt P40316 1-373)
chain: MMPANEDKENNIVYTGNESSGINFPQTPAHLLKRSHSNILKPPVRLDQLKRDANSNNGNTLKYIQGGKEVSPTKRLHTHAQQQGRLPLAAKDNNRSKSFIFPETSNQSKDADLPQLQNTLSIRKNDQLRKLSQISRSRSRANHNDLLSNSRKLQKYGSVLGYNALPKMKSLVLKDLADSGKNEESSDDDEGNEDSESKLGKKLQSALLKQDSSDGENELNGGLGLFNEQGGLQQLIKNSTKNEQKTKNDKSDKTDDYDIEIAPQRQEPLPYVPEGYSPFQQDDIEKLKTFNSPYKLDLEDEDDTPDKVDLLPLEQIDEEGEKDETECITRNQEEGAALPLLSKNFKEVAAVPTMELVYSEEGLDPEELEDLVT
In the case of B1, the binding entry is “binds”.

B2: Spf1 (protein, UniProt P39986 1-1215)
chain: MTKKSFVSSPIVRDSTLLVPKSLIAKPYVLPFFPLYATFAQLYFQQYDRYIKGPEWTFVYLGTLVSLNILVMLMPAWNVKIKAKFNYSTTKNVNEATHILIYTTPNNGSDGIVEIQRVTEAGSLQTFFQFQKKRFLWHENEQVFSSPKFLVDESPKIGDFQKCKGHSGDLTHLKRLYGENSFDIPIPTFMELFKEHAVAPLFVFQVFCVALWLLDEFWYYSLFNLFMIISMEAAAVFQRLTALKEFRTMGIKPYTINVFRNKKWVALQTNELLPMDLVSITRTAEESAIPCDLILLDGSAIVNEAMLSGESTPLLKESIKLRPSEDNLQLDGVDKIAVLHGGTKALQVTPPEHKSDIPPPPDGGALAIVTKTGFETSQGSLVRVMIYSAERVSVDNKEALMFILFLLIFAVIASWYVWVEGTKMGRIQSKLILDCILIITSVVPPELPMELTMAVNSSLAALAKFYVYCTEPFRIPFAGRIDVCCFDKTGTLTGEDLVFEGLAGISADSENIRHLYSAAEAPESTILVIGAAHALVKLEDGDIVGDPMEKATLKAVGWAVERKNSNYREGTGKLDIIRRFQFSSALKRSASIASHNDALFAAVKGAPETIRERLSDIPKNYDEIYKSFTRSGSRVLALASKSLPKMSQSKIDDLNRDDVESELTFNGFLIFHCPLKDDAIETIKMLNESSHRSIMITGDNPLTAVHVAKEVGIVFGETLILDRAGKSDDNQLLFRDVEETVSIPFDPSKDTFDHSKLFDRYDIAVTGYALNALEGHSQLRDLLRHTWVYARVSPSQKEFLLNTLKDMGYQTLMCGDGTNDVGALKQAHVGIALLNGTEEGLKKLGEQRRLEGMKMMYIKQTEFMARWNQPQPPVPEPIAHLFPPGPKNPHYLKALESKGTVITPEIRKAVEEANSKPVEVIKPNGLSEKKPADLASLLLNSAGDAQGDEAPALKLGDASCAAPFTSKLANVSAVTNIIRQGRCALVNTIQMYKILALNCLISAYSLSIIYMAGVKFGDGQATVSGLLLSVCFLSISRGKPLEKLSKQRPQSGIFNVYIMGSILSQFAVHIATLVYITTEIYKLEPREPQVDLEKEFAPSLLNTGIFIIQLVQQVSTFAVNYQGEPFRENIRSNKGMYYGLLGVTGLALASATEFLPELNEAMKFVPMTDDFKIKLTLTLLLDFFGSWGVEHFFKFFFMDDKPSDISVQQVKIASK
With B2, the binding result was “binds”.
